Results: article PMC7309945
Results are given in words; binding and its absence hold for the method and conditions named. For some assays here: In cells and extracts the contact can be indirect. Some entries that bind do so weakly or less than the wild type. For some assays here: Sequences can lack the tags named with a protein. Each block holds one binder with its values, some of them ahead of it.

Amino acid sequences for entries named in this document (tags omitted).
UniProt Q02248: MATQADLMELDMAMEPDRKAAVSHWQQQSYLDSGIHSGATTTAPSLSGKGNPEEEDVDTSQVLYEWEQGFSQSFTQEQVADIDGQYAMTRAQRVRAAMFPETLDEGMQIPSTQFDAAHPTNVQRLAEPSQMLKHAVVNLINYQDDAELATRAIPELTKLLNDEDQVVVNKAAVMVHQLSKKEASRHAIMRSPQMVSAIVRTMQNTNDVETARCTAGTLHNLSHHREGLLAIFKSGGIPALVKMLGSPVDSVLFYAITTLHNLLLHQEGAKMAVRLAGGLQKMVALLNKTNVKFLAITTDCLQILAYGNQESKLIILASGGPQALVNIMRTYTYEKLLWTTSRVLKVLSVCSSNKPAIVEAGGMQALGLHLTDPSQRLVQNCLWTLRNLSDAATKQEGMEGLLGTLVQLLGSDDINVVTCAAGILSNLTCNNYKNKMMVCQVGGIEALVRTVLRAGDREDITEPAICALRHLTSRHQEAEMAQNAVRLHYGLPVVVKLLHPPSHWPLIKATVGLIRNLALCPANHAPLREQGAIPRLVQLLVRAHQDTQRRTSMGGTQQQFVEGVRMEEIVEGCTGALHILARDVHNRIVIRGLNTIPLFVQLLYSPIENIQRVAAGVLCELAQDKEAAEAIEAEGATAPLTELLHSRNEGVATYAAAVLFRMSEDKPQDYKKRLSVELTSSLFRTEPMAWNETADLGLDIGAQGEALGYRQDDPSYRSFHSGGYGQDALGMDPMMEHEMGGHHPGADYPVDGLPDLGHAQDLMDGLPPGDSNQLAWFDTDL

How the values were obtained:
[1] = molecular target: T1, Wnt5a (wingless-type MMTV integration site family, member 5A), endogenous in mouse oocytes (mouse (endogenous in mouse oocytes)) (UniProt P22725); experiment: co-IP; lysate of 600 mouse oocytes; rabbit anti-Fam70a, anti-Wnt5a, anti-beta-catenin or rabbit IgG coupled to protein A/G beads, overnight at 4°C; IP buffer 20 mmol/L Tris-HCl pH 8.0, 10 mmol/L EDTA, 1 mmol/L EGTA, 150 mmol/L NaCl, 0.05% Triton X-100, 0.05% Nonidet P-40; endogenous proteins
T1 sequence: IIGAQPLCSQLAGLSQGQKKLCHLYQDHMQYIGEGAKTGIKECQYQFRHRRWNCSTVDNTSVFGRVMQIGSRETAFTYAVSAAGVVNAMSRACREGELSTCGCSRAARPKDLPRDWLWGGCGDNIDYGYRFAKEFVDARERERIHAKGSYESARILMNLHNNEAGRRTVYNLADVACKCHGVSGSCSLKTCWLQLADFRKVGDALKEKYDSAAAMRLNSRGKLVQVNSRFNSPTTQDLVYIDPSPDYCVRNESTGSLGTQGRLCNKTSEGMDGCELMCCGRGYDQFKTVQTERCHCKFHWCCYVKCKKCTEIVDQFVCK

[2] = molecular target: β-catenin, endogenous in mouse oocytes (mouse (endogenous in mouse oocytes)) (UniProt Q02248); experiment: as above
[3] = molecular target: T2, Wnt5a in pGBKT7 (yeast two-hybrid fusion) (UniProt P22725); experiment: two-hybrid; Fam70A in pGADT7, Wnt5a in pGBKT7, yeast strain AH109; growth on SD/-Trp-Leu and SD/-Trp-Leu-His-Ade plates; empty vectors as negative controls
T2 sequence: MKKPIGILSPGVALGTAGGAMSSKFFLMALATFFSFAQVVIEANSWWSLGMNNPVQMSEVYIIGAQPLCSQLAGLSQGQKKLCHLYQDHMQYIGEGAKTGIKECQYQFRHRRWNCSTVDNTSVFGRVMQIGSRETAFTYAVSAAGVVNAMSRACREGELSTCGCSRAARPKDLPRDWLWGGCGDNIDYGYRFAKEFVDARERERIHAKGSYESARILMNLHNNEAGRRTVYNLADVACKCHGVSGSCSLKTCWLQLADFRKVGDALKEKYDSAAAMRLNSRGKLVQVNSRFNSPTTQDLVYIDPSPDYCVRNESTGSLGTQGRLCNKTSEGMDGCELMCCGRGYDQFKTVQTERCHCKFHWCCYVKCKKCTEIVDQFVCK

[4] = molecular target: T3, Strep II-Wnt5a (UniProt P22725); experiment: co-IP; lysate of NIH3T3 cells co-transfected with pcDNA3.1(+)-Flag-Fam70A and pcDNA3.1(+)-Strep II-Wnt5a, collected 48 hours after transfection
T3 sequence: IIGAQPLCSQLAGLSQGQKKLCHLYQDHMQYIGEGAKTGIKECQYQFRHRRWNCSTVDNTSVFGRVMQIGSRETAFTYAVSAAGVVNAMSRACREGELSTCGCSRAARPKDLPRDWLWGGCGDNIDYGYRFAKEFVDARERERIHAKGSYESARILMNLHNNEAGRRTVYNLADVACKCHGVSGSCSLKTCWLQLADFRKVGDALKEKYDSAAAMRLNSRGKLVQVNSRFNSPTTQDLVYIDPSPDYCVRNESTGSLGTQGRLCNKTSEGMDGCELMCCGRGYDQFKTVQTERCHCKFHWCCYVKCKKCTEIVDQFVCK

B1: Fam70A (family with sequence similarity 70, member A), endogenous in mouse oocytes (protein, UniProt Q8BHW5 1-351)
chain: MHQSLTQQRSSDMSLPDSMGAFNRRKRNSIYVTVTLLIVSMLILTVGLAATTRTQNVTVGGYYPGVILGFGSFLGIIGSNLIENKRQMLVASIVFISFGVIAAFCCAIVDGVFAARHIDLKPLYANRCHYVPKTSQREAEEVITSSSKITPSTRALRNLTQAVKEVNCPQLSRGLCTPRIRGNTCFCCDLYNCGNRVEITGGYYEYIDVSSCQDIIHLYHLLWSATILNIVGLFLGIITAAVLGGFKDMNPTLPALNCSVENAHPTVSYYARPQVASYNTYYHSPPHLPPYSAYDFQHSGVFPSSPPSGLSDEQEPQSPSPSPSYMWSSSAPPRYSPPYYPPFEKPPPYSP
binding [1]: binds | binding [2]: binds

B2: Fam70A in pGADT7 (yeast two-hybrid fusion) (protein, UniProt Q8BHW5 1-351)
chain: MHQSLTQQRSSDMSLPDSMGAFNRRKRNSIYVTVTLLIVSMLILTVGLAATTRTQNVTVGGYYPGVILGFGSFLGIIGSNLIENKRQMLVASIVFISFGVIAAFCCAIVDGVFAARHIDLKPLYANRCHYVPKTSQREAEEVITSSSKITPSTRALRNLTQAVKEVNCPQLSRGLCTPRIRGNTCFCCDLYNCGNRVEITGGYYEYIDVSSCQDIIHLYHLLWSATILNIVGLFLGIITAAVLGGFKDMNPTLPALNCSVENAHPTVSYYARPQVASYNTYYHSPPHLPPYSAYDFQHSGVFPSSPPSGLSDEQEPQSPSPSPSYMWSSSAPPRYSPPYYPPFEKPPPYSP
binding [3]: binds

More lines, now with the values ahead:

binding [4]: binds
B3: Flag-Fam70A (protein, UniProt Q8BHW5 1-351)
chain: MHQSLTQQRSSDMSLPDSMGAFNRRKRNSIYVTVTLLIVSMLILTVGLAATTRTQNVTVGGYYPGVILGFGSFLGIIGSNLIENKRQMLVASIVFISFGVIAAFCCAIVDGVFAARHIDLKPLYANRCHYVPKTSQREAEEVITSSSKITPSTRALRNLTQAVKEVNCPQLSRGLCTPRIRGNTCFCCDLYNCGNRVEITGGYYEYIDVSSCQDIIHLYHLLWSATILNIVGLFLGIITAAVLGGFKDMNPTLPALNCSVENAHPTVSYYARPQVASYNTYYHSPPHLPPYSAYDFQHSGVFPSSPPSGLSDEQEPQSPSPSPSYMWSSSAPPRYSPPYYPPFEKPPPYSP

binding [2]: binds
B4: Wnt5a (wingless-type MMTV integration site family, member 5A), endogenous in mouse oocytes (protein, UniProt P22725 62-380)
chain: IIGAQPLCSQLAGLSQGQKKLCHLYQDHMQYIGEGAKTGIKECQYQFRHRRWNCSTVDNTSVFGRVMQIGSRETAFTYAVSAAGVVNAMSRACREGELSTCGCSRAARPKDLPRDWLWGGCGDNIDYGYRFAKEFVDARERERIHAKGSYESARILMNLHNNEAGRRTVYNLADVACKCHGVSGSCSLKTCWLQLADFRKVGDALKEKYDSAAAMRLNSRGKLVQVNSRFNSPTTQDLVYIDPSPDYCVRNESTGSLGTQGRLCNKTSEGMDGCELMCCGRGYDQFKTVQTERCHCKFHWCCYVKCKKCTEIVDQFVCK
